Experimental data reported in US20140050720A1, “ULTRALONG COMPLEMENTARITY DETERMINING REGIONS AND USES THEREOF” (THE SCRIPPS RESEARCH INSTITUTE, priority 2012, published 2014).
These are yes or no findings as the source states them, for the method shown. Some results given as binding are weak or reduced against the parent protein; the word gives no strength. Sequences can lack the tags named with a protein.

Target: T1, CXCR1 expressed on U2OS cells (DiscoveRx Cat#93-0226C3) (UniProt P25024)
T1 sequence (looked up): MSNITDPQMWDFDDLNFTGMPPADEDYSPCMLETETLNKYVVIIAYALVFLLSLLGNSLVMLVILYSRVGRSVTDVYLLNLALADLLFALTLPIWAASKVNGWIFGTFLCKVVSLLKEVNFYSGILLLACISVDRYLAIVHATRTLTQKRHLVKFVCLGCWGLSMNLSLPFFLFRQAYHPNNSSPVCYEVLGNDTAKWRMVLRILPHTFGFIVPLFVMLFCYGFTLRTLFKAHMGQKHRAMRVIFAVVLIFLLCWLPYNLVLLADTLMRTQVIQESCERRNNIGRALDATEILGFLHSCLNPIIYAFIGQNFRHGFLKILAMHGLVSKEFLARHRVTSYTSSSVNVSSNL
Experiment: flow cytometry, ratio of median fluorescence of CXCR1-U2OS against parental U2OS cells

B1: BLV1H12-IL8 fusion protein (antibody)
VH: QVQLRESGPSLVKPSQTLSLTCTASGFSLSDKAVGWVRQAPGKALEWLGSIDTGGNTGYNPGLKSRLSITKDNSKSQVSLSVSSVTTEDSATYYCTSVHQETKKYQSPRSAKELRCQCIKTYSKPFHPKFIKELRVIESGPHCANTEIIVKLSDGRELCLDPKENWVQRVVEKFLKRAENSGSGSYTYNYEWHVDVWGQGLLVTV
light: QAVLNQPSSVSGSLGQRVSITCSGSSSNVGNGYVSWYQLIPGSAPRTLIYGDTSRASGVPDRFSGSRSGNTATLTISSLQAEDEADYFCASAEDSSSNAVFGSGTTLTVLGQPKSPPSVTLFPPSTEELNGNKATLVCLISDFYPGSVTVVWKADGSTITRNVETTRASKQSNSKYAASSYLSLTSSDWKSKGSYSCEVTHEGSTVTKTVKPSECS
binding: binds
